Several values for one entry are separate records, joined by “and”; a condition that tells them apart may be missing. Equal entries are not always repeated. Screen size: about 390,000 compounds; about 4,000 (1%) were called active. Inconclusive results, whose numbers are uncertain, are shown with a selection of clear calls. Calls follow the shape of the dose curve; as a rule, active = well fitted inhibition curve with a large enough effect; inconclusive = small, poorly fitted or top-dose-only effect, or another doubt; inactive = no such curve, though single readings can be large or run the other way. A potency beside an inconclusive call is a rough fit, not a confirmed value.
Each molecule was assayed against DNA polymerase iota (Homo sapiens) (UniProt Q9UNA4) (assay: qHTS for Inhibitors of Polymerase Iota). Conditions: Pol iota fluorescent replication assay, 10 min; series mostly up to 115 µM; activity, negative = inhibition: at the top concentration.
Description: DNA polymerases, such as Pol iota, are specifically involved in DNA repair. Pol iota specifically plays an important role in translesion synthesis, where the normal high-fidelity DNA polymerases cannot proceed and DNA synthesis stalls. […] Thus, while pol eta's (and most likely iota's) normal function is to protect humans against the deleterious consequences of DNA damage, under certain conditions they can have deleterious effects on human health. As a consequence, we propose to utilize a high throughput replication assay to identify small molecule inhibitors of pol iota.
In a collaboration between the National Institute of Child Health & Human Development (NICHD) and NIH Chemical Genomics Center, a high-throughput, fluorescent screen was developed to screen the NIH Molecular Libraries Small Molecule Repository (MLSMR). This screen is used to identify inhibitors of pol iota.
NIH Chemical Genomics Center [NCGC]
NIH Molecular Libraries Probe Centers Network [MLPCN]
Assay Submitter (PI): Roger Woodgate, NICHD)
Three microliters of reagents (buffer in column 3 and 4 as negative control and 10 nM Pol iota in columns 1, 2, and 5-48) will be dispensed into 1,536-well black solid-bottomed plate. Compounds (23 nL) will be transferred via Kalypsys pin tool equipped with 1536-pin array. The plates will then be incubated for 15 min at room temperature, and 1 µL substrate (50 nM final concentration) will be added to start the reaction and kinetically read twice at 0 min and 10 min on the Viewlux reader.
Potency is read from the fitted curve at half-maximal effect.

The chains behind the UniProt entries cited, without tags or fusion partners. Where a name states a change or a piece, a line headed by the entry shows the natural chain unless it says otherwise.
UniProt Q9UNA4: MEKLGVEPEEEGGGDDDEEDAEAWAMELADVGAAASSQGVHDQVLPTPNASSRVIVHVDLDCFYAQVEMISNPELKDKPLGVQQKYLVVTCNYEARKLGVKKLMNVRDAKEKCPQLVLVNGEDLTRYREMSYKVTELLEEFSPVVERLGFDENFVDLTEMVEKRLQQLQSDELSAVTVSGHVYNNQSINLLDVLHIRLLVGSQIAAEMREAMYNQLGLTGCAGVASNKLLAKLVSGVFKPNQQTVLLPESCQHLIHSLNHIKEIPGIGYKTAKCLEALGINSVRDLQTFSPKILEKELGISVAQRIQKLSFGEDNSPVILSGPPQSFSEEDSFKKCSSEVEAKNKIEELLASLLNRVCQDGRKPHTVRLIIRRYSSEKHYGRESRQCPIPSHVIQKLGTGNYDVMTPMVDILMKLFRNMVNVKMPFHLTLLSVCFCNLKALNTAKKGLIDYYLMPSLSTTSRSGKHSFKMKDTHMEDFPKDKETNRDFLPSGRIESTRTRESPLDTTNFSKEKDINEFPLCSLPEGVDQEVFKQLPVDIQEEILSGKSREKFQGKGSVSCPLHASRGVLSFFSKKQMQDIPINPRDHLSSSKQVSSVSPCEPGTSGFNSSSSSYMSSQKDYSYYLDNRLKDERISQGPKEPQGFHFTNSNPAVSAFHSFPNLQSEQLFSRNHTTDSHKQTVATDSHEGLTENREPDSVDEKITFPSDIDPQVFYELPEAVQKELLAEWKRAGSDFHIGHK

SMILES	Potency	activity, negative = inhibition
Cc1ccc2nc(SCC(=O)NCc3ccco3)c(C)cc2c1	inconclusive: 63.1 µM [inhibitor, partial curve, poor fit]	
CC(=O)Nc1ccc(S(=O)(=O)Nc2ccc(S(=O)(=O)Nc3nccs3)cc2)cc1		inactive: 15.8%
Cc1ccc2nc(-c3ccc(NC(=O)CN4CCN(C(=O)c5ccco5)CC4)cc3)sc2c1	active: 28.2 µM	
Nc1cccc2[nH]cnc12		inactive: 16%
Cc1ccccc1CNC(=O)Nc1ccc2c(c1)N(C)C(=O)c1ccccc1S2		inactive: -2.02%
C#CCOCCOCCOCCNc1nc(N2CCN(C(=O)CCCCCCCCCCNC(=O)[C@H](CCC(=O)O)n3cc(CCCCCN)nn3)CC2)nc(N2CCN(C(=O)CCCCCCCCCCNC(=O)[C@@H]([C@H](C)O)n3cc(C)nn3)CC2)n1	inconclusive: 25.1 µM [inhibitor, single point]	
CCn1c(O)c(C=Nc2ccccc2)sc1=S		inactive: 55.1%
CCOc1ccc(CCNC(=O)CCCc2nnc3n(C)c(=O)c4sccc4n23)cc1OCC	inconclusive: 89.1 µM [inhibitor, single point]	
C=COC(=O)CSc1nc(-c2cccs2)ccc1C#N	inconclusive: 20 µM [inhibitor, full curve, poor fit]	
COc1ccccc1CN(Cc1ccco1)c1cnc(S(C)(=O)=O)nc1C(=O)Nc1ccccc1Cl		inactive: 18.4%
CSc1ccc(/C=C(\C(=O)O)c2ccc(S(=O)(=O)N3CCCCC3)s2)cc1	inconclusive: 20 µM [inhibitor, full curve, poor fit]	
Clc1ccccc1CSc1cnnc2ccccc12	inconclusive: 50.1 µM [inhibitor, partial curve, poor fit]	
COC(=O)C1=C(C)N(c2ccc(OC)c(OC)c2)C(=O)/C1=C\c1ccco1	inconclusive: 56.2 µM [inhibitor, partial curve, poor fit]	
CCCOc1ccc(/C(O)=C2/C(=O)C(=O)N(c3cc(C)on3)C2c2ccc(C(=O)OC)cc2)cc1 (stereo unspecified)	inconclusive: 10 µM [inhibitor, single point]	
COc1cc(O)c(C(CCN2CCCC2)c2ccc(N(C)C)cc2)c(OC)c1 (stereo unspecified)	inconclusive: 31.6 µM [inhibitor, single point] and inconclusive: 631 nM [inhibitor, full curve, poor fit]	
COc1ccc(NCc2cc3cc4c(cc3n(CC(=O)Nc3ccccc3)c2=O)OCO4)cc1		inactive: -6.23%
Cc1ccc(NC(=O)Cn2nnc(C(=O)NCCc3ccccc3)c2N)c(C)c1	inconclusive: 10 µM [inhibitor, partial curve, poor fit]	
O=C(O)/C(=C\c1cccc([N+](=O)[O-])c1)c1ccc(S(=O)(=O)N2CCCCC2)s1	inconclusive: 50.1 µM [inhibitor, single point]	

3 compounds already listed, sorted by molar mass, low to high.
SMILES	Potency	activity, negative = inhibition
CCn1c(O)c(C=Nc2ccccc2)sc1=S		inactive: 55.1%
COc1cc(O)c(C(CCN2CCCC2)c2ccc(N(C)C)cc2)c(OC)c1 (stereo unspecified)	inconclusive: 31.6 µM [inhibitor, single point] and inconclusive: 631 nM [inhibitor, full curve, poor fit]	
CSc1ccc(/C=C(\C(=O)O)c2ccc(S(=O)(=O)N3CCCCC3)s2)cc1	inconclusive: 20 µM [inhibitor, full curve, poor fit]	

Later entries.

SMILES	Potency	activity, negative = inhibition
Cc1cc(NC(=O)CSc2nc(-c3cccs3)nc3ccccc23)no1	inconclusive: 70.8 µM [inhibitor, partial curve]	
Cc1cccc([C@@H]2[C@@H]3C(=O)N(Cc4ccccc4)C(=O)[C@@H]3[C@]3(CC(C)C)C(=O)N(c4cccc(Br)c4)C(=O)N23)c1	inconclusive: 79.4 µM [inhibitor, single point]	
CC(C)CCn1c(O)c(N=Nc2ccccn2)c2ccccc21		inactive: 30.5%
Cc1cc(NC(=O)C2CC(c3ccc(Cl)cc3)=NO2)no1 (stereo unspecified)	inconclusive: 10 µM [inhibitor, partial curve, poor fit]	
Cc1ccc(C2c3c(-c4ccccc4O)n[nH]c3C(=O)N2CCc2ccccc2)cc1 (stereo unspecified)	inconclusive: 89.1 µM [inhibitor, single point]	
Nc1cc(S(=O)(=O)N2CCOCC2)ccc1N1CCCCC1	inconclusive: 35.5 µM [inhibitor, partial curve, poor fit]	
CC1(C)CC(c2nc(-c3ccccc3)cs2)CCS1 (stereo unspecified)	inconclusive: 50.1 µM [inhibitor, partial curve]	
CN(C)C(=O)C12CCC(C)(c3nc4ccccc4nc31)C2(C)C (stereo unspecified)		inactive: 12.9%
CN1C2=CC=CC=CC2=[N+](C)C12C=CC(=[N+]([O-])[O-])C=C2[N+](=O)[O-] (stereo unspecified)	inconclusive: 25.1 µM [inhibitor, partial curve, poor fit]	
COc1ccc(OC)c(/C=C/C(=O)Nc2cccc(S(=O)(=O)N3CCCC3)c2)c1	inconclusive: 28.2 µM [inhibitor, partial curve, poor fit]	
Cc1ccc(N2CCN(C(=O)C3CCCN(c4ncnc5c4nc4n5CCCCC4)C3)CC2)c(C)c1 (stereo unspecified)	inconclusive: 0.631 µM [inhibitor, full curve, poor fit]	
O=C(CCCSc1ccccc1)Nc1nc(-c2ccccn2)cs1	inconclusive: 3.55 µM [inhibitor, partial curve, poor fit]	
CCOC(=O)C(C(=O)OCC)c1cc(Br)c2noc3c2c1C(=O)c1ccccc1-3	inconclusive: 2.82 µM [inhibitor, partial curve, poor fit]	
O=C(O)CC(SCC(=O)Nc1ccc(S(=O)(=O)N2CCCC2)cc1)C(=O)O (stereo unspecified)	inconclusive: 10 µM [inhibitor, partial curve, poor fit]	
CC(C)C[C@@H](CNCC(=O)[C@H](CC(=O)O)NC(=O)c1[nH]cnc1C(=O)N[C@H](CN)CC(C)C)NC(=O)c1nc[nH]c1C(=O)N[C@@H](Cc1ccccc1)C(=O)O	inconclusive: 6.31 µM [inhibitor, full curve, poor fit]	
CCCCn1cc(S(=O)(=O)c2ccc(Cl)cc2)c(=O)c2cc(F)c(N3CCCC(C)C3)cc21 (stereo unspecified)	inconclusive: 100 µM [inhibitor, partial curve, poor fit]	
Cc1ccc(S(=O)(=O)N2CCOCC2)cc1NC(=O)CNc1ccccc1N1CCCC1=O	inconclusive: 89.1 µM [inhibitor, partial curve, poor fit]	
COc1cc(/C=C/C(=O)O)cc(S(=O)(=O)Nc2ccc(S(=O)(=O)N3CCCCC3)cc2)c1OC	inconclusive: 17.8 µM [inhibitor, single point]	
